# Test results: publication PMC5996148
# Where “and” joins values, the source holds several entries; their conditions need not be identical. Equal entries are not always repeated. The list shows a part of the results.
# Columns and labels:
# Assay in all cases: protein microarray (ProtoArray v5.0), streptavidin-Alexa Fluor 647
# Conditions in all cases: 3'-biotin; 20 mM Tris (pH 7.5), 5 mM MgCl2, 100 mM KCl, 0.1% Tween-20, A/T-rich and random oligonucleotide blockers; temperature not stated; high values mean tight binding
# [1] = test system: VPS16 (human)
# [2] = test system: VPS25 (human)
# [3] = test system: VPS28 (human)
# [4] = test system: VPS29 (human)
# [5] = test system: VPS33B (human)
# [6] = test system: VPS36 (human)
# [7] = test system: VPS37A (human)
# [8] = test system: VPS41 (human)
# [9] = test system: VPS4B (human)
# [10] = test system: VPS8 (human)
sequence,measurement,setting,value
GGGAGGCTGAGGCAGG [G4-1 biotinylated (PQS2)],binding signal,[1],-0.261 z-score
same,binding signal,[2],-0.375 z-score
same,binding signal,[3],-0.35 z-score
same,binding signal,[4],-0.339 z-score and -0.346 z-score
same,binding signal,[5],-0.33 z-score
same,binding signal,[6],-0.355 z-score
same,binding signal,[7],-0.348 z-score
same,binding signal,[8],-0.299 z-score
same,binding signal,[9],-0.334 z-score
same,binding signal,[10],-0.315 z-score

# Rewritten as tab-separated lines: part of the list above.
sequence	measurement	setting	value
GGGAGGCTGAGGCAGG [G4-1 biotinylated (PQS2)]	binding signal	[2]	-0.375 z-score
same	binding signal	[5]	-0.33 z-score
